We go through one molecule from PMC6625793, “The autophagic membrane tether ATG2A transfers lipids between membranes” (eLife, 2019).

Protein sequences, listed by entry. Tags and fused reporters are not part of them.
UniProt Q2TAZ0: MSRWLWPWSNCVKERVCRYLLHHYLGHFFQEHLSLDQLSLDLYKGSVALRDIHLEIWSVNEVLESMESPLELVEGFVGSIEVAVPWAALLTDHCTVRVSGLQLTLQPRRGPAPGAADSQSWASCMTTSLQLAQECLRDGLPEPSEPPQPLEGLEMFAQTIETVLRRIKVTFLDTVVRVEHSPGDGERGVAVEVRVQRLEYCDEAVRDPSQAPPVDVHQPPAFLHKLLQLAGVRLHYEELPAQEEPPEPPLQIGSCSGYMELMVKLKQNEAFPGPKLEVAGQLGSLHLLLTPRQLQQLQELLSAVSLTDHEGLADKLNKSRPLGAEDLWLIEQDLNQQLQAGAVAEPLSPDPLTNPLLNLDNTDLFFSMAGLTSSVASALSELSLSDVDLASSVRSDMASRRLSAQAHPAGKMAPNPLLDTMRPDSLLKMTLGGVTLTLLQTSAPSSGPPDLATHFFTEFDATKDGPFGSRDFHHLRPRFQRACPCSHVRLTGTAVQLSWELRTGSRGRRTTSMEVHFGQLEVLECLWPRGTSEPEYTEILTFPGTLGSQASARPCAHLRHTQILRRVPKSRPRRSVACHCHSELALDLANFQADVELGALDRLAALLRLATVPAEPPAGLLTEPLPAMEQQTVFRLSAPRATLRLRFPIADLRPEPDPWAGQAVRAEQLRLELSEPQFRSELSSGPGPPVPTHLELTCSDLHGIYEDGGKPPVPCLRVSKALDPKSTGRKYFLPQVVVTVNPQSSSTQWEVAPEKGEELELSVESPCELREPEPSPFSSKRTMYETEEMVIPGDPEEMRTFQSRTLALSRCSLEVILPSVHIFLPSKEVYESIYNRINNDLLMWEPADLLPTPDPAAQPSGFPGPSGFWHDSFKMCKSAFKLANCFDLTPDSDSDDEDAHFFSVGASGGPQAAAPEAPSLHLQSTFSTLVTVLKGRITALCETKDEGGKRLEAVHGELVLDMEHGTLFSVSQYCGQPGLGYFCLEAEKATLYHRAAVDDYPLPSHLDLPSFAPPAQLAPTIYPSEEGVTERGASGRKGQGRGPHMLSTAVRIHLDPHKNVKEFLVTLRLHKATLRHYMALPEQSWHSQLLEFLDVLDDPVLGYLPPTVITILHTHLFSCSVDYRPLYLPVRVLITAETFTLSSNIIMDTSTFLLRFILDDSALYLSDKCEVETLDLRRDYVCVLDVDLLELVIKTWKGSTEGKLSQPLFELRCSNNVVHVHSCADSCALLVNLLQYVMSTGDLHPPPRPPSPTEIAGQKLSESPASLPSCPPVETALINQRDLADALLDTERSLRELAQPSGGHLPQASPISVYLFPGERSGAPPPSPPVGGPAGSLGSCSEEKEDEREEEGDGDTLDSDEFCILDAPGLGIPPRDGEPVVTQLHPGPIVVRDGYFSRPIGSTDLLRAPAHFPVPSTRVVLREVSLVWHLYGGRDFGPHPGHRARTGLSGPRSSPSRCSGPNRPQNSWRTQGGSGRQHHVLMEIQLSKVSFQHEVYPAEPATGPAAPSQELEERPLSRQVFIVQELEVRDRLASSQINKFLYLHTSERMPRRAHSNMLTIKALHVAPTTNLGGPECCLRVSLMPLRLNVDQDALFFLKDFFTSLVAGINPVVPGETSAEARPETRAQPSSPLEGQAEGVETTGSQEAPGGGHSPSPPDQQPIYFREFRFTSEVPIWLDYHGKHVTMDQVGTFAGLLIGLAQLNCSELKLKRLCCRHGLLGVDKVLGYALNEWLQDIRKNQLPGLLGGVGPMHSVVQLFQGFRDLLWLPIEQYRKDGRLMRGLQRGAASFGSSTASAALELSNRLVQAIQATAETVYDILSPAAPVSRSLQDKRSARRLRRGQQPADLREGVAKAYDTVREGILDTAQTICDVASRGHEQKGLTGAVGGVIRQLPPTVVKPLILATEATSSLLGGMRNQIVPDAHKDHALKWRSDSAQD

Assay [1] has as its target human ATG2A-TwinStrepII (human) (UniProt Q2TAZ0). Put plainly: pull-down; ATG2A-TwinStrepII loaded on Strep-Tactin Superflow beads, mixed with free 10xHis-WIPI4 or 6xHis-WIPI1; 20 mM HEPES pH 7.5, 150 mM NaCl, 0.5 mM TCEP, 20% glycerol, 0.1% Triton X-100; ~5 min incubation, three washes, elution with 5 mM desthiobiotin; SDS-PAGE with CBB staining; both ….
For assay [2] the target is unchanged. The experiment in a line: liposome flotation; 100 nM ATG2A-TwinStrepII with His-WIPI4 or His-WIPI1 and 25 µM LUVs (100 nm; 5% PI3P, 49% DOPC, 25% DOPE, 20% DOPS, 1% DiD); 20 mM HEPES pH 7.5, 150 mM NaCl, 1 mM TCEP; Nycodenz gradient; top, middle and bottom fractions by western blotting (anti-StrepII, anti-His); both purified. For orientation: A western blot detects proteins with antibodies after separation by electrophoresis.

Results are given in words; binding and its absence hold for the method and conditions named. Some entries that bind do so weakly or less than the wild type. Sequences can lack the tags named with a protein.

B1: 10xHis-human WIPI4 (protein, UniProt Q9Y484 1-360)
chain: MTQQPLRGVTSLRFNQDQSCFCCAMETGVRIYNVEPLMEKGHLDHEQVGSMGLVEMLHRSNLLALVGGGSSPKFSEISVLIWDDAREGKDSKEKLVLEFTFTKPVLSVRMRHDKIVIVLKNRIYVYSFPDNPRKLFEFDTRDNPKGLCDLCPSLEKQLLVFPGHKCGSLQLVDLASTKPGTSSAPFTINAHQSDIACVSLNQPGTVVASASQKGTLIRLFDTQSKEKLVELRRGTDPATLYCINFSHDSSFLCASSDKGTVHIFALKDTRLNRRSALARVGKVGPMIGQYVDSQWSLASFTVPAESACICAFGRNTSKNVNSVIAICVDGTFHKYVFTPDGNCNREAFDVYLDICDDDDF
Regarding B1, the binding entry in assay [1] and in assay [2] was “binds” in each case.
